Test results from ChEMBL document CHEMBL1932986, “Synthesis and in vitro antimycobacterial activity of compounds derived from (R)- and (S)-2-amino-1-butanol - The crucial role of the configuration” (Eur J Med Chem, 2012).

Legend:
Assay type in all cases: functional, organism-based
Staphylococcus aureus [1] = experiment: Antibacterial activity against Staphylococcus aureus NRRL B 313 at 20 mg/ml after 24 hrs by agar diffusion test
Escherichia coli [2] = experiment: Antibacterial activity against Escherichia coli ATCC 8739 at 20 mg/ml after 24 hrs by agar diffusion test
Staphylococcus aureus [3] = experiment: Antibacterial activity against Staphylococcus aureus NRRL B 313 at 4 mg/ml after 24 hrs by agar diffusion test
Escherichia coli [4] = experiment: Antibacterial activity against Escherichia coli ATCC 8739 at 4 mg/ml after 24 hrs by agar diffusion test

## GENTAMICIN
Staphylococcus aureus [1]
  inhibition zone (IZ): 35 mm
Escherichia coli [2]
  inhibition zone (IZ): 31 mm
Staphylococcus aureus [3]
  inhibition zone (IZ): 27 mm
Escherichia coli [4]
  inhibition zone (IZ): 25 mm
